Source: article PMC8076227

Protein sequences, listed by entry. Tags and fused reporters are not part of them. Lines headed by an entry give the natural chain unless they say otherwise; changes in a name come on top.
UniProt Q06710: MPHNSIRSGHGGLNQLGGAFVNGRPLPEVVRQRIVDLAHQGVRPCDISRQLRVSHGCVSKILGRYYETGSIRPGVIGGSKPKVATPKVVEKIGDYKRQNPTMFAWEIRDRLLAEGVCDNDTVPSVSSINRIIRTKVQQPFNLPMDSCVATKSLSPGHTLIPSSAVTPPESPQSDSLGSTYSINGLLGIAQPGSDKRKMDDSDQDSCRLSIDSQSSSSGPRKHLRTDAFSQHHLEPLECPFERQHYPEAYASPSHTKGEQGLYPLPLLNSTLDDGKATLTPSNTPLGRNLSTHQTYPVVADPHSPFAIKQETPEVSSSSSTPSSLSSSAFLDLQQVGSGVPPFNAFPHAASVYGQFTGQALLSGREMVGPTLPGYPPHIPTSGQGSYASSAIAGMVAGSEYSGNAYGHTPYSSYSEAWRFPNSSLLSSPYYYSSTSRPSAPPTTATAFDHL
UniProt Q03112: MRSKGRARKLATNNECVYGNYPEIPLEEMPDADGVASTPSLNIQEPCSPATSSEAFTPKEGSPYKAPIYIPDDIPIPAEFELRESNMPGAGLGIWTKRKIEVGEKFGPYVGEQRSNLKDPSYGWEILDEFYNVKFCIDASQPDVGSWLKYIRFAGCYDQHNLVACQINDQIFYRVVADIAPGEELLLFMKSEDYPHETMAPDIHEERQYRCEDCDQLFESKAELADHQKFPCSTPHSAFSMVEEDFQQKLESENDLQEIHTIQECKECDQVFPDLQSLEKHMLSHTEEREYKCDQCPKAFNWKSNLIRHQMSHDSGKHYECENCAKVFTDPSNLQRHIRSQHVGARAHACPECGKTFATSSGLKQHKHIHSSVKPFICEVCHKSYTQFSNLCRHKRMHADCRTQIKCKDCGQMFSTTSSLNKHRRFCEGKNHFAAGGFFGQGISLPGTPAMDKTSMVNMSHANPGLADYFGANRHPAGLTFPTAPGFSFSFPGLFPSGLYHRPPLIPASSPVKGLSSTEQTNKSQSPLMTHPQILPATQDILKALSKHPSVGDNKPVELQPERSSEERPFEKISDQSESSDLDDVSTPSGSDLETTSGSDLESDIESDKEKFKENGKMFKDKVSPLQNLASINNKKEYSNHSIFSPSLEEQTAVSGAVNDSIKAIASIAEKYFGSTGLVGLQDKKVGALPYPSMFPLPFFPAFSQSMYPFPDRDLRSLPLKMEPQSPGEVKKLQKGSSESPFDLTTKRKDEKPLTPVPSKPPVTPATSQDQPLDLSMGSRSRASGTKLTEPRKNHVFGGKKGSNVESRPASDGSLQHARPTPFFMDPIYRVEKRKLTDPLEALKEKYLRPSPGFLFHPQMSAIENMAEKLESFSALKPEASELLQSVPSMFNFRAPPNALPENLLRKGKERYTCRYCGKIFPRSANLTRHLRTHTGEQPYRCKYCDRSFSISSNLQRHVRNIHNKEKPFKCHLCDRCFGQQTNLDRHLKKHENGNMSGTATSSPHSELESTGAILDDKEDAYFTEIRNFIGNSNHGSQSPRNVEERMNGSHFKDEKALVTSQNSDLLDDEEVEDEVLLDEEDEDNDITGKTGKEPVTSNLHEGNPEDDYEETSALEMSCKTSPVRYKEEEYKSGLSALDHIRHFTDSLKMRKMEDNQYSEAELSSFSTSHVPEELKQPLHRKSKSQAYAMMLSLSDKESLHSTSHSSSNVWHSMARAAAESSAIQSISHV

Biological target: PAX8-LgBit with point mutations abolishing DNA-binding capacity (UniProt Q06710)
Assay: split reporter; IVTT-NanoBit: PAX8-LgBit and mutants made in a mammalian in vitro transcription-translation system, mixed with PRDM3-SmBit (Fig. 2B)

binding: binds
Substance: PRDM3-SmBit (from UniProt Q03112 1-1230)

These are yes or no findings as the source states them, for the method shown. Binding seen in cells or lysates may run through a third protein. A result given as binding can be weak or reduced; the word gives no strength.
